In publication doi:10.1101/2020.06.15.145656:
Results are given in words; binding and its absence hold for the method and conditions named. Binding seen in cells or lysates may run through a third protein. Here binding means that the protein was enriched with, or labelled near, the bait; the list need not be complete. Sequences can lack the tags named with a protein.

Chains of the proteins cited; added tags and fusions are not shown.
UniProt O15047: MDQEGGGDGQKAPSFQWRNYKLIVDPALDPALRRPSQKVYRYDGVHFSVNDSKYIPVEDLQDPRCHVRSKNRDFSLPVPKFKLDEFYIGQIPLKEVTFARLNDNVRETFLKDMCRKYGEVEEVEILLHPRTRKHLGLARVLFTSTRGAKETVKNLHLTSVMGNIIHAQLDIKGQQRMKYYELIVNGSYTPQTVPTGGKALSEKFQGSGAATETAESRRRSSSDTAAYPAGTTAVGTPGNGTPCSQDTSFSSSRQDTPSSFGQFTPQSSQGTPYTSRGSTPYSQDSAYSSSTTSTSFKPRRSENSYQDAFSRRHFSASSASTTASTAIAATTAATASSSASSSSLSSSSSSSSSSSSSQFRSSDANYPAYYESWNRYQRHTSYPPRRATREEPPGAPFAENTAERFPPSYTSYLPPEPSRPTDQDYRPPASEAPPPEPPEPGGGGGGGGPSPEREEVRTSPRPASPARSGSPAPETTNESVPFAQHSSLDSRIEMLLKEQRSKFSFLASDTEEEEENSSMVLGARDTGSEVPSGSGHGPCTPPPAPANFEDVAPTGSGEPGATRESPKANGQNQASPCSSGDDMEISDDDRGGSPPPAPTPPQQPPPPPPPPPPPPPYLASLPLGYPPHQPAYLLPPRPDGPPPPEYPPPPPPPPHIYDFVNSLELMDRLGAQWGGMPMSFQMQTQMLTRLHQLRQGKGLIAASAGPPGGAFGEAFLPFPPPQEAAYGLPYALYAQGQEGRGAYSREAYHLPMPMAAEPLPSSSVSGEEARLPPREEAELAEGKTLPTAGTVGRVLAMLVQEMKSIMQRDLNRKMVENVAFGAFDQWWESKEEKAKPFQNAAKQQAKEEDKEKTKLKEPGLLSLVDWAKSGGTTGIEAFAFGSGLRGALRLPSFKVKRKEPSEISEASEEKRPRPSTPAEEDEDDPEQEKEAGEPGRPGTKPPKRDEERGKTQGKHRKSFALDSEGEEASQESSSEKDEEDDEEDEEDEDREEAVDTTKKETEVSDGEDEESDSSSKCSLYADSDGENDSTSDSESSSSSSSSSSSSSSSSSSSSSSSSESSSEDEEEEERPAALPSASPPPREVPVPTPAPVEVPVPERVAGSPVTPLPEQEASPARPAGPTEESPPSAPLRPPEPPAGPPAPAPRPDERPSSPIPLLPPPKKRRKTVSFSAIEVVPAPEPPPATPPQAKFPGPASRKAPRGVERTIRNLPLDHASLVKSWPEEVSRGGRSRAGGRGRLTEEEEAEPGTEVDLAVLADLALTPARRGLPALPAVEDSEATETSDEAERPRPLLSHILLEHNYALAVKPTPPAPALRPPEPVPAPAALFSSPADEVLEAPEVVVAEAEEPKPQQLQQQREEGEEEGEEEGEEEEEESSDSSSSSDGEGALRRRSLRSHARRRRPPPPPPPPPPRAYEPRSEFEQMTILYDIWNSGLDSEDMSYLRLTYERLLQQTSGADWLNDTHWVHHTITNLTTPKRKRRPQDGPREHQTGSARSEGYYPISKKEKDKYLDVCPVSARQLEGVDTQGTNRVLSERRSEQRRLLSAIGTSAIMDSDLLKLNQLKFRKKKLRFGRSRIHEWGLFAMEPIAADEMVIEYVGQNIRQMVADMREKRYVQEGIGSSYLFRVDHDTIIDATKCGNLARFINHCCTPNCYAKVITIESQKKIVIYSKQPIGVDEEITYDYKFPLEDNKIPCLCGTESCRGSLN

Molecular target: T1, HMGXB4^K317R/K320R-HA (HMGXB4^SUMO-), SILAC pull-down (human) (UniProt Q9UGU5)
T1 sequence: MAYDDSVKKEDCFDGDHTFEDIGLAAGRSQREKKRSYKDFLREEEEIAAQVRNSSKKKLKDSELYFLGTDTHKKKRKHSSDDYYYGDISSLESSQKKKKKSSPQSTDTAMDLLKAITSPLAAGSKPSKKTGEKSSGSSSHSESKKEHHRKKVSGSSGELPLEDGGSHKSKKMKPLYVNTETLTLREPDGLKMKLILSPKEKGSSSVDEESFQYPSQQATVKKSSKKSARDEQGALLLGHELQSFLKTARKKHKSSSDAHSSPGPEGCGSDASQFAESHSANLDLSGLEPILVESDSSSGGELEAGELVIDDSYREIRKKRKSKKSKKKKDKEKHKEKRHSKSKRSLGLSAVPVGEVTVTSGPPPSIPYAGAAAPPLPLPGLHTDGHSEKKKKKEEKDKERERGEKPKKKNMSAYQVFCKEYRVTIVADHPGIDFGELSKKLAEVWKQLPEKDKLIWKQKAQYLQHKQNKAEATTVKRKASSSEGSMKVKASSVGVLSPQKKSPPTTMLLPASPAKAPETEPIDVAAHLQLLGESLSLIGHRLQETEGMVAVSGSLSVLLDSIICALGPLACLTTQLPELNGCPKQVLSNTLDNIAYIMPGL
Experiment: affinity purification with mass spectrometry

binding: binds
Substance: SETD1A (from UniProt O15047 1-1707) (enzyme)
